# In paper PMC3458939:
# Chains of the proteins cited; added tags and fusions are not shown. Residues count along the entry.
# UniProt Q9C5A9, residues 55-559: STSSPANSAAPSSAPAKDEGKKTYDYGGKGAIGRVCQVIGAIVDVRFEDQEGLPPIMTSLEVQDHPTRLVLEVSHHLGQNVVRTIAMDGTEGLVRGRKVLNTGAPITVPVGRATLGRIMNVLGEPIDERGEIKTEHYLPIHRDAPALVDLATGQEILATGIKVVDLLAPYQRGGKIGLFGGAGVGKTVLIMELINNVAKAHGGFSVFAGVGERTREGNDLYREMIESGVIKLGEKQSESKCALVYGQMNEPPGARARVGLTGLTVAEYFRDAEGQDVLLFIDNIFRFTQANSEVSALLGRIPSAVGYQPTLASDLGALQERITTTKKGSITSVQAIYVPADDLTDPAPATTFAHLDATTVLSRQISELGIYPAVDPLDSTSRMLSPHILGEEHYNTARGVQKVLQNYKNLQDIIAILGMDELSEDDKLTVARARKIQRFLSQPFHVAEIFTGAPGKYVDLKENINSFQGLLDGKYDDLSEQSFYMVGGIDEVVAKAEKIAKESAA
# UniProt Q9C9W3: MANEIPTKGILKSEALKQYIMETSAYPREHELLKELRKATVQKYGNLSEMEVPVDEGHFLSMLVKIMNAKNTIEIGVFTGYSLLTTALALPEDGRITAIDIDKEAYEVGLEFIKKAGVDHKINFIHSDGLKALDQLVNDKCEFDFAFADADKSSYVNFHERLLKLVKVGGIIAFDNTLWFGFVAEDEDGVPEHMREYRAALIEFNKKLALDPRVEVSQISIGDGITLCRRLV
# Results are given in words; binding and its absence hold for the method and conditions named. Binding seen in cells or lysates may run through a third protein. Some binding calls cover weakened binding; strength is not graded here.
# Target: CPK3-eGFP (Arabidopsis thaliana) (UniProt Q42479)
# Assay: FRET or BRET; FRET-FLIM in Nicotiana benthamiana epidermal leaf cells; donor CPK3-eGFP, acceptor N-terminal mRFP or C-terminal mCherry fusion; average GFP lifetime in a cytoplasmic sector (nucleus for HMGB5); at least five cells per sample
row,binding,Substance
1,binds,AT5G08680-mCherry (from UniProt Q9C5A9 55-559)
2,binds,mRFP-AT5G08680 (from UniProt Q9C5A9 55-559)
3,no binding,mRFP-CCoAMT (from UniProt Q9C9W3 1-232)
